Experimental data from the supplement of paper PMC6414424.
± gives the standard deviation of the averaged measurements. The list shows a part of the results.

Each compound was assayed on APPdp1-6 iPSC-derived neurons (assay: pThr231Tau/total Tau ratio Z-score vs DMSO vehicle wells; higher = more pThr231Tau relative to total Tau). Details: 5 µM; treatment time 5 days.

Compound | pThr231Tau/total Tau ratio Z-score
CC(=O)Oc1ccc2c(c1)CC[C@@H]1[C@@H]2CC[C@]2(C)[C@@H](O)CC[C@@H]12 [ESTRADIOL ACETATE    Therap cat: estrogen] | 0.0748 ± 1.2
COc1ccc(C(Cl)=C(c2ccc(OC)cc2)c2ccc(OC)cc2)cc1 [Prestw-757] | -0.738 ± 0.076
Cc1oncc1C(=O)Nc1ccc(C(F)(F)F)cc1 [Prestw-772] | 0.285 ± 0.1
CC1CC(OC(=O)C(O)c2ccccc2)CC(C)(C)C1 (stereo not drawn) | -0.466 ± 1.2
CCOC(=O)[C@H](CCc1ccccc1)N[C@@H](C)C(=O)N1Cc2ccccc2C[C@H]1C(=O)O [Prestw-927] | -0.78 ± 0.15
CC(CCc1ccccc1)NCC(O)c1ccc(O)c(C(N)=O)c1 (stereo not drawn) [Prestw-277] | -0.537 ± 0.28
Cc1onc(-c2c(Cl)cccc2Cl)c1C(=O)N[C@@H]1C(=O)N2[C@@H]1SC(C)(C)[C@@H]2C(=O)O [Prestw-450] | 2.32 ± 0.43
CN1C(C)(C)CCCC1(C)C [Prestw-683] | 0.629 ± 0.2
CC[N+](C)(C)Cc1ccccc1Br [Prestw-942] | -0.264 ± 0.26
C[N+](C)(C)CCCCCC[N+](C)(C)C [Prestw-38] | 0.475 ± 0.89
Cc1cc2c(cc1S(N)(=O)=O)S(=O)(=O)CCC2 [Prestw-11] | -0.243 ± 0.28
Clc1cnccn1 [Prestw-1087] | 0.00912 ± 1.1
NCCNCCNCCNCCN [Prestw-1387] | -1.07 ± 0.24
NC(=O)c1cc[n+](CC2=C(C(=O)O)N3C(=O)[C@@H](NC(=O)[C@@H](c4ccccc4)S(=O)(=O)[O-])[C@H]3SC2)cc1 [Prestw-814] | 6.74 ± 9
CC1(C)S[C@@H]2[C@H](NC(=O)[C@H](NC(=O)N3CCNC3=O)c3ccccc3)C(=O)N2[C@H]1C(=O)O [Prestw-821] | -0.444 ± 0.77
CCCCCCc1ccc(O)cc1O.Nc1c2ccccc2nc2ccccc12 [ACRISORCIN    Therap cat: antifungal] | -0.0748 ± 0.49
Nc1nc(Cl)nc2c1ncn2[C@H]1C[C@H](O)[C@@H](CO)O1 [Prestw-1484] | -0.407 ± 1.2

Reformatted: entries from further up.
Compound	pThr231Tau/total Tau ratio Z-score
CC(CCc1ccccc1)NCC(O)c1ccc(O)c(C(N)=O)c1 (stereo not drawn) [Prestw-277]	-0.537 ± 0.28
Cc1onc(-c2c(Cl)cccc2Cl)c1C(=O)N[C@@H]1C(=O)N2[C@@H]1SC(C)(C)[C@@H]2C(=O)O [Prestw-450]	2.32 ± 0.43

Later entries:

Compound | pThr231Tau/total Tau ratio Z-score
CN[C@@H]1[C@H](O[C@H]2[C@H](O[C@H]3[C@H](O)[C@@H](O)[C@H](N=C(N)N)[C@@H](O)[C@@H]3N=C(N)N)O[C@@H](C)[C@]2(O)C=O)O[C@@H](CO)[C@H](O)[C@H]1O [Prestw-321] | -0.625 ± 0.74
Cc1cccc(C(=O)O)c1O [3-Cresotinic acid] | -1 ± 1.2
O=C1OC2(C3=C[C](Br)C([O-])=C=C3Oc3cc([O-])c(Br)cc32)c2ccccc21.[Hg+].[Na+].[Na+].[OH-] (stereo not drawn) [MERBROMIN    Therap cat:  Antibacterial] | -1.18 ± 0.27
OCCOCCN1CCN(C2=Nc3ccccc3Sc3ccccc32)CC1 [Prestw-1323] | -0.436 ± 0.22
CC1(C)S[C@@H]2[C@H](NC(=O)[C@H](N)c3ccc(O)cc3)C(=O)N2[C@H]1C(=O)O [Prestw-357] | 0.641 ± 0.57
COc1cccc2c1C(=O)c1c(O)c3c(c(O)c1C2=O)C[C@@](O)(C(=O)CO)C[C@@H]3O[C@H]1C[C@H](N)[C@H](O)[C@H](C)O1 [Prestw-438] | -0.134 ± 3.8
CCC(=O)O[C@@H](O[P@](=O)(CCCCc1ccccc1)CC(=O)N1C[C@H](C2CCCCC2)C[C@H]1C(=O)O)C(C)C [Prestw-1423] | -0.115 ± 0.37
CCCCC(=O)O[C@H]1CC[C@H]2[C@@H]3CCc4cc(O)ccc4[C@H]3CC[C@]12C [Prestw-1473] | 0.251 ± 0.29
COC(=O)Nc1nc2ccc(C(=O)c3ccccc3)cc2[nH]1 [Prestw-217] | -3.69 ± 1.3
N=C(N)c1ccc(OCCCCCOc2ccc(C(=N)N)cc2)cc1 [Prestw-553] | -0.497 ± 0.61
Fc1ccc(C(c2ccc(F)cc2)N2CCN(C/C=C/c3ccccc3)CC2)cc1 [Prestw-312] | -0.223 ± 0.49
CN1CCc2c(c3ccccc3n2Cc2ccccc2)C1 | 0.407 ± 0.078
CN1CCc2c(c3ccccc3n2Cc2ccccc2)C1 [Prestw-455] | -0.335 ± 0.036
COc1ccc(CCN(C)CCCC(C#N)(c2ccc(OC)c(OC)c2)C(C)C)cc1OC (stereo not drawn) [Prestw-141] | -0.648 ± 0.22
C[N+]1(CCCCC[N+]2(C)CCCC2)CCCC1 [Prestw-188] | 0.77 ± 0.5
CO/N=C(\C(=O)N[C@@H]1C(=O)N2C(C(=O)OCOC(=O)C(C)(C)C)=C(/C=C\c3scnc3C)CS[C@H]12)c1csc(N)n1 [CEFDITORIN PIVOXIL, antibacterial] | 0.88 ± 1.1
